In paper PMC12040169 (PLOS Biology, 2025):
The list shows a part of the results.

These molecules were tested on T1, CTL2-GFP (C. trachomatis L2/434/Bu, GFP-expressing). Settings: bulk GFP, single well; 28.5 h, 10 µM; inhibitor.
T1 construct: L2/434/Bu, GFP-expressing
Parameters: species or system HeLa; Intracellular C. trachomatis growth in HeLa cells, bulk GFP fluorescence relative to DMSO

Compound	% of control remaining
COc1ccc(N2CCN(c3c(C)c(C)nc4cc(-c5nccn5C)nn34)CC2)cc1 [CBK286178]	131.758%
O=C(NCc1cccc(C(F)(F)F)c1)c1cnc(-c2ccccc2)c(-c2ccco2)c1 [CBK036667]	153.008%
Cn1ccnc1CN1CCCN(C(=O)c2cccc(C#N)c2)CC1 [CBK303998]	101.469%
CCCNC(=O)Cn1nc(C)n2c(cc3sccc32)c1=O [CBK284020]	142.756%
O=[N+]([O-])c1cc(S(=O)(=O)Nc2nnc(C(F)(F)F)s2)ccc1Cl [CBK062021]	94.8886%
O=c1c(-c2ccccc2)c(C(F)(F)F)oc2c(CN3CCN(Cc4ccccc4)CC3)c(O)ccc12 [CBK265808]	120.896%
Cc1[nH]c2cc(C(=O)O)ccc2c1CC(=O)O [CBK269955]	102.454%
COC(=O)c1cccc(C(=O)Nc2ncc(-c3ccccc3)s2)c1 [CBK298294]	165.92%
CCN1CCN(c2c(Cl)cccc2NC(=O)CSc2ccc(Cl)cc2)CC1 [CBK267606]	133.006%
O=C(NS(=O)(=O)c1cccc(-c2nnco2)c1)C1C2C3CCC(C3)C12 (stereo not drawn) [CBK306488]	142.415%
Cc1cc2ccnc(Cl)c2n1CC1(O)CC2CCC(C1)N2 (stereo not drawn) [CBK284980]	137.966%
NC(=O)COc1ccc(CNc2ccc(Oc3ccccc3)cc2)cc1Cl [CBK269584]	140.281%
CNCC(=O)N1CCC2(CCCC[C@H]3CN(C(C)=O)CC[C@H]3NC(=O)CNC2=O)CC1 [CBK292181]	129.52%
Cc1nc(S(=O)(=O)CCn2cccn2)n(C2CCCC2)c1C [CBK305138]	114.699%
Cc1ccc2c(c1)N(CCO)/C(=C/c1sc3ccccc3[n+]1CCCS(=O)(=O)[O-])S2 [CBK293965]	104.129%
COc1ccc(-c2nnc3ccc(SCC(=O)N4CCCC4)nn23)cc1OC [CBK287527]	133.884%
Cc1ccc(S(=O)(=O)NC[C@H]2CC[C@H](C(=O)O)CC2)cc1 [CBK286706]	101.919%
NC(=O)c1c(NC(=O)/C=C/c2c(F)cccc2Cl)sc2c1CCCCCC2 [CBK262631]	100%
CCN(CC)C(=O)C1CCCN(C(=O)NCCOC)C1 (stereo not drawn) [CBK156129]	94.9404%
COc1ccc(CN2CCNC(=O)C2CC(=O)O)cc1OC (stereo not drawn) [CBK269991]	124.088%
CC(=O)NCCn1cc2c(n1)[C@H]1CN(C(=O)C(C)(C)C)C[C@H]1CC2 [CBK282168]	160.813%
O=c1c2ccccc2nc2n1CCN(Cc1ccc(F)cc1)CC2 [CBK284814]	120.813%
CC(=O)N1C[C@H]2CCCN(S(=O)(=O)c3ccc(Cl)s3)[C@H]2C1 [CBK285293]	112.359%
Cc1cccc(C(=O)Oc2ccc(-n3ccnc3)cc2)c1 [CBK090137]	100.277%
O=c1cc2ncc(-c3ccncc3)cn2[nH]1 [CBK011300]	116.118%
Cc1cccc(NC(=O)c2cnc3scc(C)n3c2=O)c1 [CBK287453]	111.9%

Look-ups from the list.
Entry for Cc1cccc(C(=O)Oc2ccc(-n3ccnc3)cc2)c1 [CBK090137] under % of control remaining: 100.277%
Entry for Cn1ccnc1CN1CCCN(C(=O)c2cccc(C#N)c2)CC1 [CBK303998] under % of control remaining: 101.469%
Entry for O=C(NS(=O)(=O)c1cccc(-c2nnco2)c1)C1C2C3CCC(C3)C12 (stereo not drawn) [CBK306488] under % of control remaining: 142.415%

Carrying on.

Compound	% of control remaining
Cc1ccccc1NC(=O)N1CCC2(CC1)NCCc1c2[nH]c2ccc(O)cc12 [CBK046904]	154.22%
COc1ccccc1CN(CCCn1ccnc1)Cc1cccn1C [CBK283160]	114.19%
Cc1nc2ccc(NC(=O)CC(c3ccccc3)c3ccccc3)cc2s1 [CBK293988]	169.13%
O=C(Cn1nnc(-c2ccccc2)n1)Nc1ccccc1C(=O)O [CBK264358]	125.806%
O=S(=O)(c1ccc(-c2csc(-c3cccnc3)n2)cc1)N1CCCCCC1 [CBK265502]	83.7738%
CC(C)(C)OC(=O)N1CCCC(C(=O)NC2CCCc3ccccc32)C1 (stereo not drawn) [CBK305617]	96.4408%
O=C(Cc1ccc(F)cc1Cl)N1CCn2c(nnc2C2CC2)C1 [CBK283773]	116.998%
O=C(O)c1cn(C2CC2)c2cc(N3CCN(C(=O)Cc4ccccc4Cl)CC3)c(F)cc2c1=O [CBK297136]	38.5475%
O=C(CCCCCN1C(=O)c2ccccc2C1=O)NO [CBK288514]	121.327%
COc1cc(CNc2ccc(N3CCCCC3)cc2)cc(Cl)c1OCc1cccs1 [CBK074586]	75.8316%
O=C(O)CCC(=O)N1CCCC2(CCN(C(=O)Cc3c[nH]c4ccccc34)C2)C1 (stereo not drawn) [CBK131572]	115.07%
Cc1ccc(-c2nccnc2OCCOc2ccccc2)c(C)c1 [CBK106991]	103.405%
Cc1ccc(C)c(NC(=O)CN(Cc2ccc(Cl)c(Cl)c2)S(=O)(=O)c2ccccc2)c1 [CBK264191]	98.1417%
N#Cc1ccc(N2CCCC(N3CCNC3=O)C2)c(C(F)(F)F)c1 (stereo not drawn) [CBK305162]	108.501%
Cc1ccc2[nH]c(SCc3nc4ccccc4c(=O)[nH]3)nc2c1 [CBK269908]	150.086%
O=C(NC1(c2ccccc2)CCCC1)c1ccc(=O)n(CC(=O)N2CCCCC2)c1 [CBK285631]	124.661%
C=CCn1c(-c2sc(NC(=O)CCc3ccco3)nc2C)n[nH]c1=S [CBK295312]	166.676%
Cn1c(=O)n(CC(=O)NCc2cccs2)c2cccnc21 [CBK283907]	104.123%
c1coc(-c2cn3ccnc3c(NCCc3ccncc3)n2)c1 [CBK037333]	181.091%
CCCc1ccc(S(=O)(=O)Nc2cccc(C(=O)OCC)c2)cc1 [CBK034332]	112.339%
Cc1ccc(S(=O)(=O)N(CC(O)CN2CCCCC2)c2ccccc2)cc1 (stereo not drawn) [CBK263570]	119.783%
COc1cc(CNC(=O)c2ccc(O)nc2)ccc1OCc1ccncc1 [CBK298297]	102.389%
COCCCNC(=O)c1cnn2c(C)c(Cc3ccccc3)c(C)nc12 [CBK162216]	109.209%
O=C(NCc1ccc(F)cc1)c1cc(Br)cnc1NCc1cccnc1 [CBK076405]	89.7497%
COc1ccc2[nH]cc(C(C(=O)O)N3CCCCC3)c2c1 (stereo not drawn) [CBK286676]	145.562%
CC(C)c1nc(CCN(C)C(=O)NCc2cnc3cnccn23)no1 [CBK307666]	102.542%

Compound	% of control remaining
CC(C)Nc1nc2cc(Cl)c(Cl)cc2nc1OCCCN(C)C [CBK115282]	106.392%
CCCCOc1ccc(C(=O)OC(Cc2cccc3ccccc23)CN(CC)CC)cc1 (stereo not drawn) [CBK011965C]	106.572%
O=C(NCCN1CCOCC1)c1cc(Br)cnc1N1CCOCC1 [CBK076202]	119.203%
CCN(Cc1ccccc1)C(=O)Nc1ccc2[nH]ccc2c1 [CBK155229]	103.701%
COCCNS(=O)(=O)c1ccc(C)cc1 [CBK002332]	123.905%
COc1cc(CCN2CCC(c3nc(-c4ccccc4)c4ccccn34)CC2)cc(OC)c1OC [CBK035278]	95.1428%
O=C(O)C1CCCN(C(=O)COc2cc3oc(=O)cc(-c4ccccc4)c3cc2Cl)C1 (stereo not drawn) [CBK286753]	114.447%
Fc1ccc2[nH]c3c(c2c1)CCN1C(c2cccnc2)N2CCC31CC2 (stereo not drawn) [CBK284436]	134.804%
CCc1ccc(C(O)CNC2CCN(Cc3cscn3)CC2)cc1 (stereo not drawn) [CBK304733]	135.146%
CC(C)NCC(O)c1c2c(cc3c1CCC3)CCC2 (stereo not drawn) [CBK012972F]	127.334%
O=C(O)/C=C/C(=O)N1N=C(c2ccc(F)cc2)CC12C(=O)Nc1ccccc12 (stereo not drawn) [CBK286747]	107.726%
COc1ccc(N2CCN(c3nc(N4CCOCC4)nc(N4CCOCC4)n3)CC2)cc1 [CBK264166]	96.6716%
COc1ccc(CCN(Cc2ccc(Cl)c(Cl)c2)C(=O)NCCCSC)cc1OC [CBK158758]	90.5921%
O=C(Nc1ccccc1C(=O)N1CCN(Cc2ccccc2)CC1)c1ccc(F)cc1 [CBK264948]	100%
Nc1ncc(-c2cccc(O)c2)nc1-c1ccc(C(=O)NCCO)cc1 [CBK064143]	141.575%
O=c1c(N2CCNCC2)nccn1CCOc1cccc(Cl)c1Cl [CBK013463]	114.938%
Cc1cccn2cc(COC(=O)c3ccc(F)cc3N)nc12 [CBK298310]	188.995%
O=C(Cn1c(-c2ccc(F)cc2)cc2cccnc21)N1CCCC1 [CBK285384]	84.9907%
O=c1n(-c2ccc3c(c2)OCO3)ccn1S(=O)(=O)c1ccc2c(c1)OCCO2 [CBK106636]	100%
Cc1ccc(C)n1NC(=O)c1ccccc1[N+](=O)[O-] [CBK266151]	120.42%
N#Cc1cccc(S(=O)(=O)Nc2cccc3[nH]ccc23)c1 [CBK155771]	130.727%
CCc1nccn1CCC(=O)NC1CCCN(Cc2ccccc2F)C1 (stereo not drawn) [CBK306652]	119.263%
CCNC(=O)c1ccc(-c2ccc(S(C)(=O)=O)cc2)nc1 [CBK158882]	106.893%
CC(NC(=O)N1CCNC(=O)C1)c1ccccc1 (stereo not drawn) [CBK155877]	102.713%
CN(Cc1ccccc1)C(=O)[C@H]1C[C@@H](O)[C@H](O)[C@@H]2N=C(Nc3ccc(Cl)cc3)S[C@@H]21 [CBK288949]	113.733%
COc1cccc(NC(=O)CN(c2ccccc2)S(=O)(=O)c2ccc(Cl)cc2)c1 [CBK265366]	101.244%
